Experimental data published in PMC10589240.
Results are given in words; binding and its absence hold for the method and conditions named. Binding seen in cells or lysates may run through a third protein. Some binding calls cover weakened binding; strength is not graded here.

Sequences of proteins named here, by UniProt entry; tags and fusion partners are left off. A change or cut given only in a name is not applied to a line headed by its entry. A line that says so, or that is headed by a name, gives the form on record, which may keep a tag or linker.
thyroid hormone receptor interactor protein 12 (TRIP12), endogenous (human (endogenous in HCT116 and HEK293T)) (Q14669, form named): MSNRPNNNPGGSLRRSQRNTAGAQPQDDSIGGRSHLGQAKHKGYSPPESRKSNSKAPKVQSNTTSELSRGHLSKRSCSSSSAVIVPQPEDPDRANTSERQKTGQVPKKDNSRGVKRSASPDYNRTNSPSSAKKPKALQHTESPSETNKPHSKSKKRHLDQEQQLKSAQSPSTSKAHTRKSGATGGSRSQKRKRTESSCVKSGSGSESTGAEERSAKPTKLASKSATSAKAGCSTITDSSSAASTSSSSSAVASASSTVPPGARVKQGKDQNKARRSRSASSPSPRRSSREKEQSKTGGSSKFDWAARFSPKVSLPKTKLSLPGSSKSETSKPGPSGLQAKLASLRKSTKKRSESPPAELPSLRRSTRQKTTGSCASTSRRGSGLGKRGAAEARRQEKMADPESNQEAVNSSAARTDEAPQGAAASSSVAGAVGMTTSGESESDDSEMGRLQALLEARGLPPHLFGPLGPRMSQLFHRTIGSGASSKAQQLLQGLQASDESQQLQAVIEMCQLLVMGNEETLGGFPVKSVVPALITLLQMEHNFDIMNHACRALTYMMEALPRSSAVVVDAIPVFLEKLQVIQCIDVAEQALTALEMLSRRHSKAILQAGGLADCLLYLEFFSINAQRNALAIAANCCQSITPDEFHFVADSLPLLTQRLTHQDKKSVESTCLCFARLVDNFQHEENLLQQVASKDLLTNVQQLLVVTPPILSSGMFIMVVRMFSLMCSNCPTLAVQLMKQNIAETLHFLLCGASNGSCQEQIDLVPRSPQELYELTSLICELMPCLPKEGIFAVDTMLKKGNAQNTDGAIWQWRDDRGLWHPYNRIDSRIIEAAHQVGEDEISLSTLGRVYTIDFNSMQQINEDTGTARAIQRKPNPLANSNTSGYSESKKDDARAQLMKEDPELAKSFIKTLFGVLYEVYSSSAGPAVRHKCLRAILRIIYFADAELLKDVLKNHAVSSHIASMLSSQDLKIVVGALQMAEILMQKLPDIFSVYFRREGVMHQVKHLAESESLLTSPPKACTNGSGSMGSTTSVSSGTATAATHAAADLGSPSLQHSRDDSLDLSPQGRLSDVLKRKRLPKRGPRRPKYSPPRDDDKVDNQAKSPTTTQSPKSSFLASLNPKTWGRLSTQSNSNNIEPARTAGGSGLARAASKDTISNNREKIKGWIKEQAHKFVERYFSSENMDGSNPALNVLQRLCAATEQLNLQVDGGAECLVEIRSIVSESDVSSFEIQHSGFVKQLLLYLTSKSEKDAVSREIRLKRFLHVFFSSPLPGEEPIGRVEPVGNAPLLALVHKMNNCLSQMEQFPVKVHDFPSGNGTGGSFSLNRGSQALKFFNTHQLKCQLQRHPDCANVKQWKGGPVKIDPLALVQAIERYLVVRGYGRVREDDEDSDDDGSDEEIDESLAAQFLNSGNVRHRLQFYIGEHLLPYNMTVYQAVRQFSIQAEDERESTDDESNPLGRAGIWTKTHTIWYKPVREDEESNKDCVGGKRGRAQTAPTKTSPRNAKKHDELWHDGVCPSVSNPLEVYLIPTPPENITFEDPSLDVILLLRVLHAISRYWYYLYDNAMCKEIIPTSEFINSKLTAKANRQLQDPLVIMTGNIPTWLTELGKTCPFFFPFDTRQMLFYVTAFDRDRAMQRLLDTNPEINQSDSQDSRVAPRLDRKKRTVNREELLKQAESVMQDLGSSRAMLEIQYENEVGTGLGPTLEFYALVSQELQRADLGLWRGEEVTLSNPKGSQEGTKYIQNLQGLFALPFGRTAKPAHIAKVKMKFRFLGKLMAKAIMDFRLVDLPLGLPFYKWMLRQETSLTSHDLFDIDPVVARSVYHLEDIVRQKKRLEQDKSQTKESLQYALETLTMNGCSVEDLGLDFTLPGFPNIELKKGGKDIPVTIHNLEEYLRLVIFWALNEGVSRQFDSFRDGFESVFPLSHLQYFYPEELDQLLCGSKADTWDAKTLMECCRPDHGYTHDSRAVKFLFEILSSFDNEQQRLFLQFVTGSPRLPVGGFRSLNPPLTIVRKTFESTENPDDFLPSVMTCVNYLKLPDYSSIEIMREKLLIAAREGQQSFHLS
UniProt Q13485: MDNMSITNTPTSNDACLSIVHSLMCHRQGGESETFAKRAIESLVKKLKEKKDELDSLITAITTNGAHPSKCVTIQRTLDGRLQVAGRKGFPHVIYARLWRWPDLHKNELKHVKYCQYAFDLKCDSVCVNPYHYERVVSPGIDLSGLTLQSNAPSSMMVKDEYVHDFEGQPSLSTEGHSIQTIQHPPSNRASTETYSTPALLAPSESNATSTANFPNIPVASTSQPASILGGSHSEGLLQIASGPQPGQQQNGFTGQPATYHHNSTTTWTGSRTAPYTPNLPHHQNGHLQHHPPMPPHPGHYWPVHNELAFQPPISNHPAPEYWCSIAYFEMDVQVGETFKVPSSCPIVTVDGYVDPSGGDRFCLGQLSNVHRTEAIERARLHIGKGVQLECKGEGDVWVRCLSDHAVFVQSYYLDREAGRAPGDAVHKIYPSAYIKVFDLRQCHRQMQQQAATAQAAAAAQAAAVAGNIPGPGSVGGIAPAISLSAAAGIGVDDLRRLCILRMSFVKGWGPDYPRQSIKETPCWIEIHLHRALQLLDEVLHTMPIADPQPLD

Target: thyroid hormone receptor interactor protein 12 (TRIP12), endogenous (human (endogenous in HCT116 and HEK293T)) (UniProt Q14669)
Test: co-IP; IP of endogenous TRIP12 with the antibody used for proteomics from HEK293T lysates, Western blot

- binding: binds
Substance: SMAD4, endogenous (from UniProt Q13485 1-552)
